{"sequences": {"note": "Sequences of proteins named here, by UniProt entry; tags and fusion partners are left off. A change or cut given only in a name is not applied to a line headed by its entry.", "UniProt Q01638": "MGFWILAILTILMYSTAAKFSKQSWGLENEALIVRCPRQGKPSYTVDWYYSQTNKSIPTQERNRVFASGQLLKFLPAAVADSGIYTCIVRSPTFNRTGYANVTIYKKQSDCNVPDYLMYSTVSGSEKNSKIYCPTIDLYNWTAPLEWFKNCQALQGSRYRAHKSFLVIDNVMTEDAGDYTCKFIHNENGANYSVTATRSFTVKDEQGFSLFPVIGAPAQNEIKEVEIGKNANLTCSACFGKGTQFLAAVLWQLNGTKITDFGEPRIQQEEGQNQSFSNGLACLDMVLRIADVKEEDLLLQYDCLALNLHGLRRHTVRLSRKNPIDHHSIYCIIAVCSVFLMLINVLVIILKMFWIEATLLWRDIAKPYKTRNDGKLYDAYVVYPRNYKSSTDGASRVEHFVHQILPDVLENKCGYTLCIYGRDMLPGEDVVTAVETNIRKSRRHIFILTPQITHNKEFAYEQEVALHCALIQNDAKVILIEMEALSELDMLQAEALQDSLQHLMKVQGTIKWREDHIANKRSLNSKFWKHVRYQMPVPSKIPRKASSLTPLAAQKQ"}, "source": "PubChem BioAssay AID1259354", "about": "(Paczesny and Yang Labs, IUPUI and University of Michigan, 2018)", "note": "Among all 78,000 compounds or so, about 1,800 (2.3%) were called active. Inconclusive results, whose numbers are uncertain, are shown with a selection of clear calls. Cut-off read from the data, not from the text of the source: active = inhibition above about 30%; inconclusive = mostly about 10% to 28%; inactive = weaker than that.", "data": [{"molecular_target": "Interleukin-1 receptor-like 1 (Homo sapiens) (UniProt Q01638)", "test": "blocks human ST2 binding to IL-33, primary screen, biochemical, AlphaLISA (AID 1259354)", "settings": "AlphaLISA ST2-Fc/biotin-IL-33 interaction, 1 h; at 17 µM, stronger effect = higher value", "values": [{"smiles": "COCCC1CN(C/C(C)=C/c2ccco2)CCO1", "note": "(configuration not stated)", "inhibition": "inconclusive: 19%"}, {"smiles": "CC(C)NC(=O)Cn1c(=O)n(CC2CCC(C(=O)NCc3ccccc3)CC2)c(=O)c2sccc21", "note": "(configuration not stated)", "inhibition": "inactive"}, {"smiles": "COc1cc(Br)cc(/C=C/c2ccc3cccc(O)c3n2)c1O", "inhibition": "active: 38%"}, {"smiles": "CS(=O)(=O)c1ccc(CC(=O)N2CCC3(CCCO3)CC2)cc1", "inhibition": "inactive"}, {"smiles": "Cc1ccc(S(=O)(=O)N2CCN(c3nc(C)cc(N4CCN(C)CC4)n3)CC2)cc1", "inhibition": "inconclusive: 23%"}, {"smiles": "O=c1[nH]c(/C=C\\c2ccccc2Cl)c([N+](=O)[O-])c(=O)[nH]1", "inhibition": "inactive"}, {"smiles": "CCOCCCNC(=O)CSc1cc(=O)n(C)c2cc(Cl)ccc12", "inhibition": "inactive"}, {"smiles": "CC(=O)OC[C@@]12C(=O)C[C@@H](C)[C@]3(C[C@@H](c4ccoc4)OC3=O)[C@H]1CC[C@H](OC(C)=O)[C@]21CO1", "inhibition": "inconclusive: 10%"}, {"smiles": "COC(=O)Nc1ccc(S(=O)(=O)N2CCC(C)CC2)cc1", "inhibition": "inconclusive: 10%"}, {"smiles": "COc1ccc(CN2CCC(N3CCCC(C)C3)CC2)cc1", "note": "(configuration not stated)", "inhibition": "inactive"}, {"smiles": "O=C(O)C[C@@H]1CCN(C(=O)NC2CCCCC2)C[C@@H]1CCN1CCN(c2ccc(F)cc2)CC1", "inhibition": "inconclusive: 15%"}, {"smiles": "O=C(c1ccc(CO)o1)N1CCc2c(ncnc2N2CCOCC2)C1", "inhibition": "inconclusive: 17%"}, {"smiles": "CCOc1ccccc1NC(=O)CCC1CCCCC1", "inhibition": "inactive"}, {"smiles": "CN(Cc1ccccc1)[C@@H]1[C@H](O)[C@H](CO)O[C@@H]1CNC(=O)c1cccs1", "inhibition": "inconclusive: 17%"}, {"smiles": "CSCCC(NC(=O)C1CCC(C)CC1)C(=O)Nc1ccc(F)c(Cl)c1", "note": "(configuration not stated)", "inhibition": "inactive"}, {"smiles": "CCOc1cc(C(=O)Nc2cccc(NC(=O)c3ccccc3)c2)cc(OCC)c1OCC", "inhibition": "inactive"}, {"smiles": "Cn1ccnc1SCc1ccc([N+](=O)[O-])cc1", "inhibition": "inconclusive: 16%"}, {"smiles": "Cc1cc(C)n2nc(C(=O)N(C)Cc3ccc(C)o3)cc2n1", "inhibition": "inconclusive: 23%"}, {"smiles": "CC[C@@H](NC(C)=O)C(=O)NCc1ccc2[nH]c(-c3ccc(F)cc3)c(C)c2c1", "inhibition": "inactive"}, {"smiles": "COc1ccc2nc3oc(C(=O)NCc4cccs4)cc3cc2c1", "inhibition": "active: 35%"}, {"smiles": "O=C(NC(=O)c1ccccc1)Oc1ccc([N+](=O)[O-])cc1", "inhibition": "inactive"}, {"smiles": "CCOC(=O)CCNC(=O)N1CCOC(CCN(C)C)C1", "note": "(configuration not stated)", "inhibition": "inactive"}, {"smiles": "Cc1cccc2c(-c3cc(NCCO)ncn3)c[nH]c12", "inhibition": "inconclusive: 21%"}, {"smiles": "C=CCNC(=O)C(=O)Nc1ccc(Cl)c(Cl)c1", "inhibition": "inactive"}, {"smiles": "N#Cc1cccc(NC(=O)N[C@H]2CO[C@H]3[C@@H]2OC[C@H]3OCc2ccccc2)c1", "inhibition": "inconclusive: 15%"}, {"smiles": "COc1ccc(NC(=O)c2c(Cl)nc(C)c(Cl)c2C)cc1", "inhibition": "inconclusive: 12%"}, {"smiles": "c1ccc(-c2cc(-c3nc(-c4ccccn4)no3)c3ccccc3n2)cc1", "inhibition": "inconclusive: 29%"}, {"smiles": "Cc1nn(Cc2ccccc2Cl)c(C)c1NC(=O)CSc1n[nH]c(C)c1[N+](=O)[O-]", "inhibition": "inconclusive: 12%"}, {"smiles": "COCCCNC(=O)C1c2cc(OC)c(OC)cc2C(=O)N(C)C1c1cccs1", "note": "(configuration not stated)", "inhibition": "inactive"}, {"smiles": "O=C(c1ccco1)N1CCCN(Cc2cccc(-n3cccn3)c2)CC1", "inhibition": "inactive"}, {"smiles": "COc1cc(C(=O)NCCc2ccc(F)cc2)c([N+](=O)[O-])cc1OC", "inhibition": "inconclusive: 17%"}, {"smiles": "COCc1cc(=O)n2[nH]c(NC(C)=O)nc2n1", "inhibition": "inconclusive: 14%"}, {"smiles": "O=C1CC(Sc2ncn[nH]2)C(=O)N1c1ccc(F)cc1", "note": "(configuration not stated)", "inhibition": "inconclusive: 23%"}, {"smiles": "O=C(COC(=O)c1ccccc1O)c1ccc(Br)cc1", "inhibition": "active: 90%"}, {"smiles": "Cc1ccn2c(=O)cc(CN3CCC(=O)N(CC4CC4)C(C(C)C)C3)nc2c1", "note": "(configuration not stated)", "inhibition": "inconclusive: 16%"}, {"smiles": "NC(=O)c1nn(-c2ccccc2)nc1NC(=O)CSc1nnnn1-c1cccc(Cl)c1", "inhibition": "inactive"}, {"smiles": "CC1CC(C)CN(C2CC(=O)N(c3ccccc3)C2=O)C1", "note": "(configuration not stated)", "inhibition": "inactive"}, {"smiles": "CN1CCC(Cc2noc(-c3cccc(-n4cccn4)c3)n2)CC1", "inhibition": "inconclusive: 20%"}, {"smiles": "C=CCNC(=O)C[C@@H]1CCN(C(=O)c2ccnc(Cl)c2)C[C@@H]1CC", "inhibition": "inconclusive: 17%"}, {"smiles": "COc1ccc(CNC(=O)CSCc2ccc(C)cc2)cc1", "inhibition": "inconclusive: 12%"}, {"smiles": "O=[N+]([O-])c1ccc(Nc2nc(Cl)nc(NCCN3CCOCC3)n2)cc1", "inhibition": "inconclusive: 10%"}, {"smiles": "O=C1NN=C(c2ccccc2)/C1=C/c1ccc(-c2ccc(Cl)cc2)o1", "inhibition": "active: 49%"}, {"smiles": "O=C(O)c1ccc(CN2C[C@H](O)C[C@H]2c2nc(Cc3ccccc3)no2)cc1", "inhibition": "inconclusive: 11%"}, {"smiles": "Cc1ccc(S(=O)(=O)N(CC(=O)Nc2ccccc2C(N)=O)c2ccccc2Cl)cc1", "inhibition": "inconclusive: 19%"}, {"smiles": "O=C1NC[C@@H](CCC(=O)N2CCc3ccccc32)N2C[C@@H](NC(=S)NCc3ccco3)C[C@@H]12", "inhibition": "inconclusive: 24%"}, {"smiles": "CCOc1ccc(-n2c(-c3ccco3)nc3c(cnn3-c3ccc(F)cc3)c2=O)cc1", "inhibition": "active: 33%"}, {"smiles": "CN1CCC(N2CC[C@H](c3nnc(-c4cccnc4)o3)C2)CC1", "inhibition": "inconclusive: 14%"}, {"smiles": "COc1ccc(-c2nnc(C[C@@H]3C[C@@H](C(C)C)[C@H](CN4CCN(CCO)CC4)C=C3C)o2)cc1", "inhibition": "inconclusive: 24%"}, {"smiles": "CCc1ccc(Cn2c(CNS(=O)(=O)c3cccs3)nc3cccnc32)cc1", "inhibition": "inactive"}, {"smiles": "COc1ccc(N2CCN(Cc3ccc4nonc4c3)C(C)C2)cc1", "note": "(configuration not stated)", "inhibition": "active: 31%"}, {"smiles": "Cn1c(N2CCOCC2)nc2c1c(=O)n(Cc1c(F)cccc1Cl)c(=O)n2C", "inhibition": "inconclusive: 15%"}, {"smiles": "CCN(Cc1cnn(C)c1)C(=O)c1ccc(-c2ncn[nH]2)cc1", "inhibition": "inconclusive: 18%"}, {"smiles": "CCN(CC)C(=O)c1sc(NC(=O)c2ccc3c(c2)OCO3)c(C(=O)OC(C)C)c1C", "inhibition": "inactive"}, {"smiles": "O=C1CCCC2=C1C(c1ccccc1)n1nc(SCc3ccccc3Cl)nc1N2", "note": "(configuration not stated)", "inhibition": "inconclusive: 16%"}, {"smiles": "COc1cc(C(=O)Nc2ccc3c(c2)ncn3-c2ccc(C)cc2)cc(OC)c1OC", "inhibition": "inconclusive: 25%"}, {"smiles": "O=C1OC(Nc2ccc(Cl)cc2Cl)c2ccccc21", "note": "(configuration not stated)", "inhibition": "inactive"}, {"smiles": "Cc1[nH]c2ccccc2c1CC(=O)NCc1nc(-c2cccnc2)no1", "inhibition": "inconclusive: 17%"}, {"smiles": "CN(C)c1nc2c(c(=O)n(C)c(=O)n2C)n1Cc1ccc(F)cc1", "inhibition": "inactive"}, {"smiles": "COc1ccccc1N1CCN([C@@H]2[C@H](O)[C@H](CO)O[C@@H]2CNC(=O)N2CCOCC2)CC1", "inhibition": "inconclusive: 10%"}, {"smiles": "COCCCNc1nc(-c2ccc([N+](=O)[O-])cc2)nc2ccccc12", "inhibition": "inconclusive: 11%"}, {"smiles": "O=C(CN1CCN(Cc2ccccc2F)C1=O)NCc1ccccc1Cl", "inhibition": "inactive"}, {"smiles": "Brc1c(CSc2nc3ccccc3[nH]2)nc2ncccn12", "inhibition": "inconclusive: 10%"}, {"smiles": "CC(C(=O)NCc1ccccc1-n1ccnc1)n1cc(Cl)cn1", "note": "(configuration not stated)", "inhibition": "inconclusive: 16%"}, {"smiles": "CCc1ccc(-c2nc(CN3CCC(C(=O)NC4CCCC4)CC3)c(C)o2)cc1", "inhibition": "inconclusive: 10%"}, {"smiles": "CCN(c1ccccc1)S(=O)(=O)c1cc(Br)cc2c1N(C(C)=O)C(C)C2", "note": "(configuration not stated)", "inhibition": "inactive"}, {"smiles": "Cn1ccnc1CN(Cc1cc2ccccc2o1)C1CC1", "inhibition": "inconclusive: 12%"}, {"smiles": "O=C(Nc1nnc(-c2ccccc2)s1)c1ccccc1Cl", "inhibition": "inactive"}, {"smiles": "CC(=O)Nc1ccc(CN2C[C@H](O)C[C@H]2c2nc(Cc3ccccc3)no2)cc1", "inhibition": "inconclusive: 19%"}, {"smiles": "Cc1ccc(NC(=O)c2cc3cc(Br)ccc3oc2=N)cc1", "inhibition": "inactive"}, {"smiles": "COc1ccc(C(=O)CCC(=O)Nc2ccc(C)cc2)cc1", "inhibition": "inactive"}, {"smiles": "CCn1ccnc1CN(C)Cc1cn(-c2ccc(F)cc2F)nc1-c1ccccc1C", "inhibition": "inconclusive: 24%"}, {"smiles": "CCC(=O)Nc1cccc(C(=O)N(CC#Cc2ccccc2)C2CC2)c1", "inhibition": "inconclusive: 11%"}, {"smiles": "CCCC(=O)N1c2ccccc2NC2=C(C(=O)CCC2)C1c1ccc(C)cc1", "note": "(configuration not stated)", "inhibition": "inactive"}, {"smiles": "COc1ccc(-c2ccc3c(c2)C(=O)N2CC[C@H](N)[C@H]2C(=O)N3)c(OC)c1", "inhibition": "inconclusive: 12%"}, {"smiles": "CC(=O)NC1=NC(=O)/C(=C\\c2ccccc2OCc2ccc(Cl)cc2Cl)S1", "inhibition": "inconclusive: 11%"}, {"smiles": "CS(=O)(=O)c1ccc2nc(NC(=O)c3ccc(=O)n(Cc4c(F)cccc4Cl)c3)sc2c1", "inhibition": "inconclusive: 10%"}, {"smiles": "CN1CC[C@@H]2[C@H]1C(=O)NC[C@H](CCC(=O)NCc1ccc(F)cc1)N2C", "inhibition": "inconclusive: 10%"}, {"smiles": "COC(=O)c1ccc(-c2nc(CN3CCCCC3c3nc4ccc(F)cc4[nH]3)c(C)o2)cc1", "note": "(configuration not stated)", "inhibition": "inconclusive: 17%"}, {"smiles": "c1ccc(CNc2cc(-c3ccc4c(c3)CNCC4)c3cc[nH]c3n2)nc1", "inhibition": "inconclusive: 20%"}, {"smiles": "O=C(C1CC1)N(CCN(C(=O)C1CC1)c1ccccc1)c1ccccc1", "inhibition": "inconclusive: 10%"}, {"smiles": "Cc1cnccc1N1CCCN(C(=O)Nc2nncs2)CC1", "inhibition": "inconclusive: 11%"}, {"smiles": "CCOC(=O)c1c(NC(=O)c2cc(F)c(F)cc2Cl)sc2c1CCC2", "inhibition": "inactive"}, {"smiles": "Cc1ccc(N(C(=O)COc2ccc(C(C)(C)C)cc2)C2C=CS(=O)(=O)C2)cc1", "note": "(configuration not stated)", "inhibition": "inconclusive: 10%"}, {"smiles": "COc1ccc(N2C(=O)C3CCCN3C2c2ccc(C)cc2)cc1Cl", "note": "(configuration not stated)", "inhibition": "inconclusive: 12%"}, {"smiles": "COc1ccc(-c2cc(C(F)(F)F)nc(NCc3ccccc3)n2)cc1", "inhibition": "inconclusive: 19%"}, {"smiles": "O=C(C1CC1)N1CCc2cc(Br)cc(S(=O)(=O)NCCC3=CCCCC3)c21", "inhibition": "inactive"}, {"smiles": "O=c1oc2ccccc2n1CCN1CCc2[nH]cnc2C1c1ccccn1", "note": "(configuration not stated)", "inhibition": "inconclusive: 14%"}, {"smiles": "CN1C[C@@H](NC(=O)CC(C)(C)CC(=O)O)C[C@H]1c1nc(Cc2ccccc2)no1", "inhibition": "inconclusive: 14%"}, {"smiles": "O=C(CCS(=O)(=O)c1cccc2nsnc12)NCC1COc2ccccc2O1", "note": "(configuration not stated)", "inhibition": "inconclusive: 16%"}, {"smiles": "Oc1oc(-c2ccc(Cl)cc2)nc1C=Nc1ccc(Cl)cc1Cl", "inhibition": "inconclusive: 23%"}, {"smiles": "Cc1ccc(C(=O)Nc2ccc3c(c2)oc2ccccc23)o1", "inhibition": "inconclusive: 11%"}, {"smiles": "O=C(Nc1ccccc1)O[C@@H]1CO[C@H]2[C@@H]1OC[C@@H]2NS(=O)(=O)Cc1ccccc1", "inhibition": "inconclusive: 15%"}]}]}
